The supplement of paper PMC7661543
The effect of the compound repeats well; differences between the knockouts mostly do not.

Tested on: BT-20
Test: relative cell number vs DMSO control (72 h) (% of DMSO); higher = less growth inhibition (more cells)
Experimental: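 QMAP-Seq: a pool of 5 breast cancer cell lines (ZR-75-1, SKBR3, HCC-38, MDA-MB-231, BT-20), each carrying 12 doxycycline-inducible Cas9 sgRNA perturbations (11 knockouts plus non-targeting sgNT), was treated with compounds for 72 h at four 10-fold doses (10 nM-10 uM or 1 nM-1 uM range). Barcodes were amplified and sequenced, and cell number was interpolated from 293T spike-in standard curves. The result is expressed as % of the median of DMSO wells. Two biological replicates.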

Cc1ccc(NC(=O)c2ccc(CN3CCN(C)CC3)cc2)cc1Nc1nc(-c2cccnc2)cs1 [Masitinib]
Conditions | relative cell number
sgRNA knockout: sgATF3, 10 nM | 91.1
sgRNA knockout: sgATF3, 100 nM | 82.6
sgRNA knockout: sgATF3, 1000 nM | 87.7
sgRNA knockout: sgATF3, 10000 nM | 77.4
sgRNA knockout: sgATF4, 10 nM | 97.4
sgRNA knockout: sgATF4, 100 nM | 98.8
sgRNA knockout: sgATF4, 1000 nM | 84.3
sgRNA knockout: sgATF4, 10000 nM | 86.1
sgRNA knockout: sgATF6, 10 nM | 103
sgRNA knockout: sgATF6, 100 nM | 90.6
sgRNA knockout: sgATF6, 1000 nM | 88.8
sgRNA knockout: sgATF6, 10000 nM | 67.8
sgRNA knockout: sgATG7, 10 nM | 106
sgRNA knockout: sgATG7, 100 nM | 98
sgRNA knockout: sgATG7, 1000 nM | 88.8
sgRNA knockout: sgATG7, 10000 nM | 99.3
sgRNA knockout: sgERN1, 10 nM | 100
sgRNA knockout: sgERN1, 100 nM | 90.1
sgRNA knockout: sgERN1, 1000 nM | 92.4
sgRNA knockout: sgERN1, 10000 nM | 103
sgRNA knockout: sgHSF1, 10 nM | 106
sgRNA knockout: sgHSF1, 100 nM | 93.3
sgRNA knockout: sgHSF1, 1000 nM | 87.7
sgRNA knockout: sgHSF1, 10000 nM | 89.1
sgRNA knockout: sgHSF2, 10 nM | 88.299
sgRNA knockout: sgHSF2, 100 nM | 86.9
sgRNA knockout: sgHSF2, 1000 nM | 82.3
sgRNA knockout: sgHSF2, 10000 nM | 104
sgRNA knockout: sgKEAP1, 10 nM | 90.8
sgRNA knockout: sgKEAP1, 100 nM | 94.6
sgRNA knockout: sgKEAP1, 1000 nM | 83.2
sgRNA knockout: sgKEAP1, 10000 nM | 90.1
sgRNA knockout: sgNFE2L2, 10 nM | 91.9
sgRNA knockout: sgNFE2L2, 100 nM | 92
sgRNA knockout: sgNFE2L2, 1000 nM | 85.8
sgRNA knockout: sgNFE2L2, 10000 nM | 81.1
sgRNA knockout: sgSLC35F2, 10 nM | 91.9
sgRNA knockout: sgSLC35F2, 100 nM | 87.4
sgRNA knockout: sgSLC35F2, 1000 nM | 90.9
sgRNA knockout: sgSLC35F2, 10000 nM | 92.1
sgRNA knockout: sgXBP1, 10 nM | 108
sgRNA knockout: sgXBP1, 100 nM | 94.8
sgRNA knockout: sgXBP1, 1000 nM | 99.3
sgRNA knockout: sgXBP1, 10000 nM | 97.7

COC(=O)Nc1nc2cc(C(=O)c3ccccc3)ccc2[nH]1 [Mebendazole]
Conditions | relative cell number
sgRNA knockout: sgATF3, 10 nM | 85.7
sgRNA knockout: sgATF3, 100 nM | 95.8
sgRNA knockout: sgATF3, 1000 nM | 24.5
sgRNA knockout: sgATF3, 10000 nM | 30.2
sgRNA knockout: sgATF4, 10 nM | 98.2
sgRNA knockout: sgATF4, 100 nM | 85
sgRNA knockout: sgATF4, 1000 nM | 23.8
sgRNA knockout: sgATF4, 10000 nM | 28.1
sgRNA knockout: sgATF6, 10 nM | 88.4
sgRNA knockout: sgATF6, 100 nM | 90.4
sgRNA knockout: sgATF6, 1000 nM | 25.9
sgRNA knockout: sgATF6, 10000 nM | 20.7
sgRNA knockout: sgATG7, 10 nM | 86.4
sgRNA knockout: sgATG7, 100 nM | 84
sgRNA knockout: sgATG7, 1000 nM | 21
sgRNA knockout: sgATG7, 10000 nM | 26.3
sgRNA knockout: sgERN1, 10 nM | 86.2
sgRNA knockout: sgERN1, 100 nM | 79.2
sgRNA knockout: sgERN1, 1000 nM | 27.8
sgRNA knockout: sgERN1, 10000 nM | 27.5
sgRNA knockout: sgHSF1, 10 nM | 92.5
sgRNA knockout: sgHSF1, 100 nM | 78.66
sgRNA knockout: sgHSF1, 1000 nM | 22.2
sgRNA knockout: sgHSF1, 10000 nM | 27.5
sgRNA knockout: sgHSF2, 10 nM | 93.8
sgRNA knockout: sgHSF2, 100 nM | 90.7
sgRNA knockout: sgHSF2, 1000 nM | 32.3
sgRNA knockout: sgHSF2, 10000 nM | 24.5
sgRNA knockout: sgKEAP1, 10 nM | 84.4
sgRNA knockout: sgKEAP1, 100 nM | 78.5
sgRNA knockout: sgKEAP1, 1000 nM | 25.4
sgRNA knockout: sgKEAP1, 10000 nM | 25.4
sgRNA knockout: sgNFE2L2, 10 nM | 96.2
sgRNA knockout: sgNFE2L2, 100 nM | 87.4
sgRNA knockout: sgNFE2L2, 1000 nM | 33.6
sgRNA knockout: sgNFE2L2, 10000 nM | 28.7
sgRNA knockout: sgSLC35F2, 10 nM | 104
sgRNA knockout: sgSLC35F2, 100 nM | 106
sgRNA knockout: sgSLC35F2, 1000 nM | 30.1
sgRNA knockout: sgSLC35F2, 10000 nM | 27.4
sgRNA knockout: sgXBP1, 10 nM | 97.5
sgRNA knockout: sgXBP1, 100 nM | 82
sgRNA knockout: sgXBP1, 1000 nM | 24.4
sgRNA knockout: sgXBP1, 10000 nM | 30.9

CN1C(=O)C(Cc2c[nH]c3ccccc23)NC1=S (configuration not stated) [Necrostatin1]
Conditions | relative cell number
sgRNA knockout: sgATF3, 10 nM | 99.5
sgRNA knockout: sgATF3, 100 nM | 80.2
sgRNA knockout: sgATF3, 1000 nM | 82.3
sgRNA knockout: sgATF3, 10000 nM | 104
sgRNA knockout: sgATF4, 10 nM | 96.9
sgRNA knockout: sgATF4, 100 nM | 93.1
sgRNA knockout: sgATF4, 1000 nM | 110
sgRNA knockout: sgATF4, 10000 nM | 84.1
sgRNA knockout: sgATF6, 10 nM | 84.5
sgRNA knockout: sgATF6, 100 nM | 79.1
sgRNA knockout: sgATF6, 1000 nM | 80.9
sgRNA knockout: sgATF6, 10000 nM | 101
sgRNA knockout: sgATG7, 10 nM | 85.6
sgRNA knockout: sgATG7, 100 nM | 98.7
sgRNA knockout: sgATG7, 1000 nM | 96.4
sgRNA knockout: sgATG7, 10000 nM | 95.8
sgRNA knockout: sgERN1, 10 nM | 93.2
sgRNA knockout: sgERN1, 100 nM | 84.4
sgRNA knockout: sgERN1, 1000 nM | 94.7
sgRNA knockout: sgERN1, 10000 nM | 91.7
sgRNA knockout: sgHSF1, 10 nM | 90.9
sgRNA knockout: sgHSF1, 100 nM | 78.6
sgRNA knockout: sgHSF1, 1000 nM | 90.9
sgRNA knockout: sgHSF1, 10000 nM | 86.8
sgRNA knockout: sgHSF2, 10 nM | 77.2
sgRNA knockout: sgHSF2, 100 nM | 84.1
sgRNA knockout: sgHSF2, 1000 nM | 103
sgRNA knockout: sgHSF2, 10000 nM | 105
sgRNA knockout: sgKEAP1, 10 nM | 95.4
sgRNA knockout: sgKEAP1, 100 nM | 99.1
sgRNA knockout: sgKEAP1, 1000 nM | 93.5
sgRNA knockout: sgKEAP1, 10000 nM | 89.6
sgRNA knockout: sgNFE2L2, 10 nM | 93.8
sgRNA knockout: sgNFE2L2, 100 nM | 79.7
sgRNA knockout: sgNFE2L2, 1000 nM | 98.7
sgRNA knockout: sgNFE2L2, 10000 nM | 107
sgRNA knockout: sgSLC35F2, 10 nM | 83.6
sgRNA knockout: sgSLC35F2, 100 nM | 96.2
sgRNA knockout: sgSLC35F2, 1000 nM | 99.9
sgRNA knockout: sgSLC35F2, 10000 nM | 93
sgRNA knockout: sgXBP1, 10 nM | 106
sgRNA knockout: sgXBP1, 100 nM | 91.1
sgRNA knockout: sgXBP1, 1000 nM | 99.4
sgRNA knockout: sgXBP1, 10000 nM | 105
